{"source": "the supplement of paper PMC7024190", "note": "Counter-ions that a name gives are not always drawn. This is one part of the list. This data set is noisy: repeats of one test often differ as much as different tests do.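 Human embryonic kidney cells were transiently transfected with a plasmid bearing a Renilla luciferase gene under the HSV-TK promoter. This first-round screen tests roughly ten thousand compounds for ones that increase reporter output.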"}
{"tested_on": "HEK 293FT", "experiment": "log relative Renilla luciferase luminescence (reporter expression vs reference, reference not stated) (log (base not stated)); higher = higher recombinant reporter expression", "conditions": "10 µM; time after transfection 48 h"}
{"molecule": "O=C(O)CS", "note": "[sodium thioglycolate]", "log": 0.0412}
{"molecule": "NC1(C(=O)O)CCCC1", "note": "[cycloleucine]", "log": 0.101}
{"molecule": "NCCCC[C@H](N[C@@H](CCc1ccccc1)C(=O)O)C(=O)N1CCC[C@H]1C(=O)O", "note": "[lisinopril]", "log": -0.0112}
{"molecule": "CC(C)(C)NC[C@H](O)COc1nsnc1N1CCOCC1", "note": "[timolol maleate]", "log": 0.083}
{"molecule": "C[C@]12CCC(=O)C=C1CC[C@@H]1[C@@H]2[C@@H](O)C[C@@]2(C)[C@H]1CC[C@]2(O)C(=O)COC(=O)CCC(=O)O", "note": "[hydrocortisone hemisuccinate]", "log": -0.0162}
{"molecule": "CCOC(=O)[C@H](CCc1ccccc1)N[C@H]1CCc2ccccc2N(CC(=O)O)C1=O", "note": "[benazepril hydrochloride]", "log": 0.0992}
{"molecule": "COC1=C(OC)C(=O)C(CCCCCCCCCCO)=C(C)C1=O", "note": "[idebenone]", "log": -0.14}
{"molecule": "COc1cc(-c2coc3cc(O)c(OC)c(O)c3c2=O)cc(O)c1OC", "note": "[irigenin]", "log": 0.0481}
{"molecule": "CCOC(=O)OC(C)OC(=O)[C@@H]1N2C(=O)[C@@H](NC(=O)[C@H](N)c3ccccc3)[C@H]2SC1(C)C", "note": "(some centres not stated) [bacampicillin hydrochloride]", "log": 0.0585}
{"molecule": "COc1ccc(CN(CCN(C)C)c2ccccn2)cc1", "note": "[pyrilamine maleate]", "log": -0.00743}
{"molecule": "CCCNC(C)C(=O)Nc1ccccc1C", "note": "(configuration not stated) [prilocaine hydrochloride]", "log": 0.156}
{"molecule": "CC(COc1ccccc1)N(CCCl)Cc1ccccc1", "note": "(configuration not stated) [phenoxybenzamine hydrochloride]", "log": 0.0507}
{"molecule": "Nc1ncn([C@@H]2O[C@H](CO)[C@@H](O)[C@H]2O)c(=O)n1", "note": "[azacitidine]", "log": -0.25}
{"molecule": "CC(=O)c1ccc(S(=O)(=O)NC(=O)NC2CCCCC2)cc1", "note": "[acetohexamide]", "log": 0.256}
{"molecule": "O=C(NCc1ccccc1)OCCO", "note": "[buramate]", "log": -0.112}
{"molecule": "Cc1cc(=O)oc2cc(O)ccc12", "note": "[hymechrome]", "log": 0.0299}
{"molecule": "Cc1nc2ccccc2n1Cc1ccc(Cl)cc1", "note": "[chlormidazole]", "log": -1.43}
{"molecule": "Cn1c(=O)c2nc[nH]c2n(C)c1=O", "note": "[theophylline]", "log": 0.0765}
{"molecule": "C=C1c2cccc(O)c2C(=O)C2=C(O)[C@]3(O)C(=O)C(C(N)=O)=C(O)[C@@H](N(C)C)[C@@H]3[C@@H](O)[C@H]12", "note": "[methacycline hydrochloride]", "log": -0.0128}
{"molecule": "c1ccc(C2CN3CCSC3=N2)cc1", "note": "(configuration not stated) [tetramizole hydrochloride]", "log": -0.177}
{"molecule": "COc1cc2cc3c4cc(OC)c(OC)cc4cc[n+]3c(C)c2cc1OC", "note": "[coralyne chloride]", "log": -0.0533}
{"molecule": "COc1cc(C(=O)O)cc(OC)c1O", "note": "[syringic acid]", "log": 0.365}
{"molecule": "Cc1scc2c1N(C(=O)CN1CCN(C)CC1)c1ccccc1NC2=O", "note": "[telenzepine hydrochloride]", "log": -0.0157}
{"molecule": "COC(=O)C[C@H]1C(C)(C)C(=O)[C@@H]2CC3=C4CC(=O)O[C@@H](c5ccoc5)[C@]4(C)CC[C@@H]3[C@@]1(C)C2=O", "note": "[mexicanolide]", "log": 0.19}
{"molecule": "CC(=O)N[C@@H]([C@@H](O)[C@H](O)[C@H](O)CO)[C@@H](O)CC(=O)C(=O)O", "note": "[aceneuramic acid]", "log": 0.0618}
{"molecule": "CC1(C)NC(=O)N(c2ccc([N+](=O)[O-])c(C(F)(F)F)c2)C1=O", "note": "[nilutamide]", "log": -0.212}
{"molecule": "CC(C)(c1ccc(O)cc1)c1ccc(O)cc1", "note": "[bisphenol a]", "log": 0.0708}
{"molecule": "CCCCCCc1ccc(O)cc1O", "note": "[hexylresorcinol]", "log": 0.0853}
{"molecule": "COC(=O)[C@@H]1[C@H]2C[C@H]3c4[nH]c5ccccc5c4CCN3C[C@@H]2CC[C@@H]1O", "note": "[yohimbine hydrochloride]", "log": -1.47}
{"molecule": "C=C(C)[C@@H]1CC=C(C(=O)O)CC1", "note": "[perillic acid (-)]", "log": 0.0543}
{"molecule": "C[C@]12C=CC(=O)C=C1CC[C@@H]1[C@@H]2[C@@H](O)C[C@@]2(C)[C@H]1CC[C@]2(O)C(=O)COC(=O)CCC(=O)O", "note": "[prednisolone hemisuccinate]", "log": 0.0751}
{"molecule": "O=C1CCc2cc(OCCCCc3nnnn3C3CCCCC3)ccc2N1", "note": "[cilostazol]", "log": 0.0308}
{"molecule": "CCS(=O)(=O)CCn1c([N+](=O)[O-])cnc1C", "note": "[tinidazole]", "log": 0.133}
{"molecule": "N#C[C@@H]1C[C@@H]2C[C@@H]2N1C(=O)[C@@H](N)C12CC3CC(CC(O)(C3)C1)C2", "note": "[saxagliptin]", "log": -0.144}
{"molecule": "CCCCOc1cc(C(=O)NCCN(CC)CC)c2ccccc2n1", "note": "[dibucaine hydrochloride]", "log": -0.0946}
{"molecule": "CC[C@H]1OC(=O)[C@H](C)C(=O)[C@H](C)[C@@H](O[C@@H]2O[C@H](C)C[C@H](N(C)C)[C@H]2O)[C@](C)(OC)C[C@@H](C)C(=O)[C@H](C)[C@H]2N(CCCCn3cnc(-c4cccnc4)c3)C(=O)O[C@]12C", "note": "[telithromycin]", "log": 0.0409}
{"molecule": "C[C@@]12C[C@@]3(O)O[C@@H](O1)[C@]1(COC(=O)c4ccccc4)[C@H]3C[C@@]12O[C@@H]1O[C@H](CO)[C@@H](O)[C@H](O)[C@H]1O", "note": "[peoniflorin]", "log": 0.0481}
{"molecule": "CCC1=C(C)CN(C(=O)NCCc2ccc(S(=O)(=O)NC(=O)N[C@H]3CC[C@H](C)CC3)cc2)C1=O", "note": "[glimepiride]", "log": 0.0405}
{"molecule": "Sc1nc2ccccc2s1", "note": "[2-mercaptobenzothiazole]", "log": 0.0292}
{"molecule": "COc1ccc2cc1Oc1ccc(cc1)C[C@H]1c3cc(c(OC)cc3CCN1C)Oc1c(OC)c(OC)cc3c1[C@H](C2)N(C)CC3", "note": "[tetrandrine]", "log": 0.0215}
{"molecule": "CC(=O)OCC(=O)[C@@]12N=C(C)O[C@@H]1C[C@H]1[C@@H]3CCC4=CC(=O)C=C[C@]4(C)[C@H]3[C@@H](O)C[C@@]12C", "note": "[deflazacort]", "log": -0.111}
{"molecule": "COc1ccc(C(=O)/C=C/c2ccccc2)cc1", "note": "[4'-methoxychalcone]", "log": 0.0513}
{"molecule": "CC(C)CCC[C@@H](C)[C@H]1CC[C@H]2[C@@H]3C=CC4=CC(=O)CC[C@]4(C)[C@H]3CC[C@]12C", "note": "[cholest-4,6-dien-3-one]", "log": 0.0663}
{"molecule": "CNCCC(Oc1ccc(C(F)(F)F)cc1)c1ccccc1", "note": "(configuration not stated) [fluoxetine]", "log": 0.21}
{"molecule": "Cc1nc2n(c(=O)c1CCN1CCC(c3noc4cc(F)ccc34)CC1)CCCC2", "note": "[risperidone]", "log": 0.138}
{"molecule": "CC(=O)Nc1ccc(CC(=O)O)cc1", "note": "[actarit]", "log": 0.00487}
{"molecule": "C=C1C(=O)O[C@@H]2C[C@@]3(C)CCC[C@H](C)C3=C[C@H]12", "note": "[helenine]", "log": 0.0233}
{"molecule": "CCN1CC(CCN2CCOCC2)C(c2ccccc2)(c2ccccc2)C1=O", "note": "(configuration not stated) [doxapram hydrochloride]", "log": 0.00957}
{"molecule": "CCCCNC(=O)NS(=O)(=O)c1ccc(C)cc1", "note": "[tolbutamide]", "log": 0.156}
{"molecule": "O=C(O)c1cc(-c2ccc(F)cc2F)ccc1O", "note": "[diflunisal]", "log": -0.0818}
{"molecule": "CC(=O)[C@H]1CC[C@H]2[C@@H]3C[C@H](C)C4=CC(=O)CC[C@]4(C)[C@H]3[C@@H](O)C[C@]12C", "note": "[medrysone]", "log": -0.107}
{"molecule": "CCOC(=O)OC(C)OC1=C(C(=O)Nc2ccccn2)N(C)S(=O)(=O)c2ccccc21", "note": "(configuration not stated) [ampiroxicam]", "log": -0.0856}
{"molecule": "COC(=O)c1c(C)cc(O)cc1O", "note": "[methyl orsellinate]", "log": 0.0163}
{"molecule": "CCCCCCCCCCCCC[N+](C)(C)Cc1ccccc1", "note": "[benzalkonium chloride]", "log": -1.41}
{"molecule": "O=S(=O)(O)CCS", "note": "[mesna]", "log": -0.0187}
{"molecule": "CCn1cc(C(=O)O)c(=O)c2cnc(N3CCCC3)nc21", "note": "[piromidic acid]", "log": 0.069}
{"molecule": "CC(C)Nc1ncccn1", "note": "[isaxonine]", "log": 0.0607}
{"molecule": "CC(C)(C)NC[C@H](O)c1ccc(O)c(CO)c1", "note": "[levalbuterol hydrochloride]", "log": -0.213}
{"molecule": "COc1ccc(-c2cc(=O)c3c(O)cc(O[C@@H]4O[C@H](CO[C@@H]5O[C@@H](C)[C@H](O)[C@@H](O)[C@H]5O)[C@@H](O)[C@H](O)[C@H]4O)cc3o2)cc1O", "note": "[diosmin]", "log": 0.161}
{"molecule": "O=c1c2cc(O)c(O)cc2oc2cc(O)c([C@@H]3O[C@H](CO)[C@@H](O)[C@H](O)[C@H]3O)c(O)c12", "note": "[mangiferin]", "log": 0.118}
{"molecule": "C/C=N/N(C)C=O", "note": "[gyromitrin]", "log": -0.0464}
{"molecule": "C=C1C[C@]23C[C@@]1(O)CC[C@H]2[C@@]12C=C[C@H](O)[C@@](C)(C(=O)O1)[C@H]2[C@@H]3C(=O)O", "note": "[gibberellic acid]", "log": 0.288}
{"molecule": "c1ccc2[nH]c(-c3cscn3)nc2c1", "note": "[thiabendazole]", "log": 0.148}
{"molecule": "OC[C@@H](O)[C@@H](O[C@@H]1O[C@H](CO)[C@H](O)[C@H](O)[C@H]1O)[C@H](O)[C@@H](O)CO", "note": "[lacitol]", "log": 0.089}
{"molecule": "OC[C@@H](O)[C@@H](O[C@@H]1O[C@H](CO)[C@H](O)[C@H](O)[C@H]1O)[C@H](O)[C@@H](O)CO", "note": "[d-lactitol monohydrate]", "log": -0.0616}
{"molecule": "CN1[C@@H](CC(=O)c2ccccc2)CCC[C@H]1C[C@H](O)c1ccccc1", "note": "[lobeline hydrochloride]", "log": 0.0595}
{"molecule": "CC1(C)[C@H]2CC[C@]1(CS(=O)(=O)O)C(=O)C2=Cc1ccc(C=C2C(=O)[C@@]3(CS(=O)(=O)O)CC[C@@H]2C3(C)C)cc1", "note": "[ecamsule triethanolamine]", "log": -0.0915}
{"molecule": "COc1ccc(C(=O)c2ccc(C)cc2)c(O)c1", "note": "[mexeneone]", "log": -0.00752}
{"molecule": "NC(=O)NC(=O)Cc1ccccc1", "note": "[phenacemide]", "log": -0.0225}
{"molecule": "CC(C)[C@H](NC(=O)[C@H](CC(=O)O)NC(=O)[C@H](CCCCN)NC(=O)[C@@H](N)CCCN=C(N)N)C(=O)N[C@@H](Cc1ccc(O)cc1)C(=O)O", "note": "[thymopentin]", "log": 0.0214}
{"molecule": "C[C@]12CC[C@@H]3c4ccc(O)cc4CC[C@H]3[C@@H]1CCC2=O", "note": "[estrone]", "log": 0.061}
{"molecule": "CN(C)[C@@H]1C(O)=C(C(N)=O)C(=O)[C@@]2(O)C(O)=C3C(=O)c4c(O)ccc(Cl)c4[C@@](C)(O)[C@H]3C[C@@H]12", "note": "[chlortetracycline hydrochloride]", "log": -0.0645}
